Patent US20220226375A1 (CRISPR THERAPEUTICS, published 2022)

Chains of the proteins cited; added tags and fusions are not shown. Residues count along the entry.
UniProt P20138, 18-259 limits assumed: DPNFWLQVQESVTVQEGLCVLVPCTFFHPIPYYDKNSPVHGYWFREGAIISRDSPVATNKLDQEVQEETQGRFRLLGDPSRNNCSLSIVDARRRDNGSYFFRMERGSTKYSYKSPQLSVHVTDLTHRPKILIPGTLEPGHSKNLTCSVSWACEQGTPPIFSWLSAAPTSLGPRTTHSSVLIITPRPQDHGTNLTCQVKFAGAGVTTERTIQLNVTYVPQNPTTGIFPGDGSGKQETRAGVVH

B1: CTX-970 CAR (anti-CD33 CAR, Antibody B scFv VL-VH, CD28 co-stimulatory domain, CD3z) (other)
chain: DIQMTQSPSSLSASVGDRVTINCKASQDINSYLSWFQQKPGKAPKTLIYRANRLVDGVPSRFSGSGSGQDYTLTISSLQPEDFATYYCLQYDEFPLTFGGGTKVEIKGGGGGSGGGGSGGGGSQVQLVQSGAEVKKPGASVKVSCKASGYTFTNYDINWVRQAPGQGLEWIGWIYPGDGSTKYNEKFKAKATLTADTSTSTAYMELRSLRSDDTAVYYCASGYEDAMDYWGQGTTVTVSSSAAAFVPVFLPAKPTTTPAPRPPTPAPTIASQPLSLRPEACRPAAGGAVHTRGLDFACDIYIWAPLAGTCGVLLLSLVITLYCNHRNRSKRSRLLHSDYMNMTPRRPGPTRKHYQPYAPPRDFAAYRSRVKFSRSADAPAYQQGQNQLYNELNLGRREEYDVLDKRRGRDPEMGGKPRRKNPQEGLYNELQKDKMAEAYSEIGMKGERRRGKGHDGLYQGLSTATKDTYDALHMQALPPR
notes: also called CTX-970 CAR T cells
B2: CTX-981 CAR (anti-CD33 CAR, Antibody C scFv VL-VH, CD28 co-stimulatory domain, CD3z) (other)
chain: DIQLTQSPSTLSASVGDRVTITCRASESLDNYGIRFLTWFQQKPGKAPKLLMYAASNQGSGVPSRFSGSGSGTEFTLTISSLQPDDFATYYCQQTKEVPWSFGQGTKVEVKGGGGSGGGGSGGGGSEVQLVQSGAEVKKPGSSVKVSCKASGYTITDSNIHWVRQAPGQSLEWIGYIYPYNGGTDYNQKFKNRATLTVDNPTNTAYMELSSLRSEDTAFYYCVNGNPWLAYWGQGTLVTVSSSAAAFVPVFLPAKPTTTPAPRPPTPAPTIASQPLSLRPEACRPAAGGAVHTRGLDFACDIYIWAPLAGTCGVLLLSLVITLYCNHRNRSKRSRLLHSDYMNMTPRRPGPTRKHYQPYAPPRDFAAYRSRVKFSRSADAPAYQQGQNQLYNELNLGRREEYDVLDKRRGRDPEMGGKPRRKNPQEGLYNELQKDKMAEAYSEIGMKGERRRGKGHDGLYQGLSTATKDTYDALHMQALPPR
B3: CTX-981b CAR (anti-CD33 CAR, Antibody C scFv VL-VH, 41BB co-stimulatory domain, CD3z) (other)
chain: DIQLTQSPSTLSASVGDRVTITCRASESLDNYGIRFLTWFQQKPGKAPKLLMYAASNQGSGVPSRFSGSGSGTEFTLTISSLQPDDFATYYCQQTKEVPWSFGQGTKVEVKGGGGSGGGGSGGGGSEVQLVQSGAEVKKPGSSVKVSCKASGYTITDSNIHWVRQAPGQSLEWIGYIYPYNGGTDYNQKFKNRATLTVDNPTNTAYMELSSLRSEDTAFYYCVNGNPWLAYWGQGTLVTVSSSAAAFVPVFLPAKPTTTPAPRPPTPAPTIASQPLSLRPEACRPAAGGAVHTRGLDFACDIYIWAPLAGTCGVLLLSLVITLYCNHRNRKRGRKKLLYIFKQPFMRPVQTTQEEDGCSCRFPEEEEGGCELRVKFSRSADAPAYQQGQNQLYNELNLGRREEYDVLDKRRGRDPEMGGKPRRKNPQEGLYNELQKDKMAEAYSEIGMKGERRRGKGHDGLYQGLSTATKDTYDALHMQALPPR

What follows are binders tested against T1, CD33 protein (AcroBiosystems) conjugated to biotin (UniProt P20138 18-259, biotinylated (site not stated)) (assay: flow cytometry; cell-surface CAR on edited T cells labelled with biotinylated CD33 protein and streptavidin-APC).
T1 construct: Soluble bought reagent used at 2 ug/uL with streptavidin-APC to label cell-surface anti-CD33 CAR; also called biotinylated CD33 protein, CD3-H82E7
Experimental: About one (1) week post electroporation, gene-edited T cells were analyzed by flow cytometry to assess the percentage of the cell population that expressed an anti-CD33 CAR. Labeling of cell-surface anti-CD33 CAR was done with a combination of a CD33 protein (AcroBiosystems) conjugated to biotin and a streptavidin-APC secondary reagent (FIG. 1A, FIG. 1B and FIG. 1C). […] In contrast, certain T cells generated with a TRAC and B2M gene disruption and a CAR construct did result in a high percentage of the population that expressed an anti-CD33 CAR. […] However, not all T cells prepared with a CAR construct had CAR expression. […] Indeed, this outcome was not altered by switching the CAR co-stimulatory domain (e.g., CTX-964 compared to CTX-964b).

Binding result, binds:
B1, B2, B3
